Measured values published in patent US20240036057A1, “DNA APTAMERS FOR THE DETECTION OF MONOMERIC CRP” (Universiteit Hasselt, published 2024).

Tests used:
[1] = biological target: T1, pentameric C-reactive protein (pCRP) (Homo sapiens) (UniProt P02741); assay: SPR; details: 200 nM aptamer; specificity control; purified native protein; protein details: BBI Solutions Cat-P100-0; single-stranded DNA
T1 sequence (looked up, limits assumed): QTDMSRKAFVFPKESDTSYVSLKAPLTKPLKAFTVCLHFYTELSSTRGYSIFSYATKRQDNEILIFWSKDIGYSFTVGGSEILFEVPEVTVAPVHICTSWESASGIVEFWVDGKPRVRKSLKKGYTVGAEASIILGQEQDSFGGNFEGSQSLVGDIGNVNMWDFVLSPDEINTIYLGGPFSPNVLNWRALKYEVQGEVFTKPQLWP

[2] = biological target: T1, pentameric C-reactive protein (pCRP) (Homo sapiens); assay: EMSA; details: capillary electrophoresis LIF mobility shift; no decrease of free aptamer peak; purified native protein; protein details: BBI Solutions Cat-P100-0; label: Alexa 488; single-stranded DNA; variant of AmC2
[3] = biological target: T1, pentameric C-reactive protein (pCRP) (Homo sapiens); assay: competition with a labelled probe; details: patient serum; mCRP reading 0 in samples with pCRP up to 390 mg/L; purified native protein; protein details: BBI Solutions Cat-P100-0; label: biotin; single-stranded DNA; variant of AmC2

Sequence	binding result [1]	further results
GCACCAGCATATTCGATTGGGAGCGCGGGGGAGAGTAGTGGGGAACGGTGGAGAGTTGGGCTAGTAGGTGCATCAG [AmC3]	no binding	–
GCACCAGCATATTCGATTGGGAGGTGTGAACGTTATGTGGTAGAGAGATGGGTGGTGGGGCTAGTAGGTGCATCAG [AmC4]	no binding	–
GCACCAGCATATTCGATTGTGGCGGGTTGTGAAGGGTGGAGTATGGTCGTGTTGGTTGGGCTAGTAGGTGCATCAG [AmC2-488]	–	binding result [2]: no binding
GCACCAGCATATTCGATTGTGGCGGGTTGTGAAGGGTGGAGTATGGTCGTGTTGGTTGGGCTAGTAGGTGCATCAG [AmC2]	no binding	–
GCACCAGCATATTCGATTGTGGCGGGTTGTGAAGGGTGGAGTATGGTCGTGTTGGTTGGGCTAGTAGGTGCATCAG [biotin-AmC2]	–	binding result [3]: no binding

A negative result means that nothing was seen under these conditions. Tags and fusion partners may be left off the protein sequences shown.
